# Results published in PubChem BioAssay AID1439 (NMMLSC, 2008).
# Chains of the proteins cited; added tags and fusions are not shown.
# UniProt P09471, whole entry, looked up: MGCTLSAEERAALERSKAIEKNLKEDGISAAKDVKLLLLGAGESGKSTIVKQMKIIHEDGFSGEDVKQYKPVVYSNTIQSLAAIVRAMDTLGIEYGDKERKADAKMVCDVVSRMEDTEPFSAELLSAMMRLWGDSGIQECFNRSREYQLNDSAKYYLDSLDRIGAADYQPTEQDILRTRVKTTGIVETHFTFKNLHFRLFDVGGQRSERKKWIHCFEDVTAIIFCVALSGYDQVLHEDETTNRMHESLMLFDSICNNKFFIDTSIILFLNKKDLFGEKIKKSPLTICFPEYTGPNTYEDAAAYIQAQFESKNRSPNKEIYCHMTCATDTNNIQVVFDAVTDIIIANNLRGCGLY
# The whole screen tested about 220,000 compounds, of which about 770 (0.35%) were called active. Inconclusive means that the source gave no clear call. Such entries were picked first, then a sample of the others. Rule as the data show it: active = binding response below about 49% or above about 150%; inconclusive = no clear call, values can overlap the other calls; inactive = in between.
# Target: Guanine nucleotide-binding protein G(o) subunit alpha (Homo sapiens) (UniProt P09471)
# Test: RGS7-Galphao binding modulators, primary screen, biochemical, multiplexed bead flow cytometry (AID 1439);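 also: fluorescent Galphao held in activated GDP-AlF4 state binding bead-coupled RGS7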
# Settings: at 10 µM, actives lie on both sides
row,Structure (SMILES),binding response (% of control)
1,CCCCN1C(=O)N(C)C2C1N(C)C(=O)N2CCCC (centres undefined),inactive: 103%
2,CN(C)S(=O)(=O)c1ccc(C(=O)OCC(=O)NCc2ccccc2)cc1,inconclusive: 94.1%
3,CC(=O)Nc1ccc(C(=O)Cn2c3[n+](c4c(F)c(F)ccc42)CCCCC3)cc1,inactive: 96.1%
4,Cc1ccc(S(=O)(=O)N2CCOCC2)cc1NC(=O)COC(=O)c1ccc2c(c1)OCO2,inconclusive: 99.2%
5,CCOc1ncccc1C(=O)N1CCN(c2ccc(C(F)(F)F)cn2)CC1,inconclusive: 94.9%
6,Cc1cccc(C)c1NC(=O)C1(C)c2cccc[n+]2CC(=O)N1Cc1cccs1 (centres undefined),inconclusive: 124%
7,Nc1ccc2oc3ccc(N)cc3c(=O)c2c1,active: -13.3%
8,C=CCNc1nc2c(c(=O)n(C)c(=O)n2C)n1CC(=C)C,inconclusive: 111%
9,O=C(Nc1ccc(Cl)cc1)/C(=C/c1ccc([N+](=O)[O-])cc1)c1nc2ccccc2s1,inactive: 105%
10,Fc1ccc(NC(=S)Nc2ccccc2N2CCOCC2)cc1Cl,inconclusive: 113%
11,COCCN(C(=S)Nc1ccc(C)cc1C)C(C)c1ccco1 (centres undefined),inactive: 142%
12,Clc1ccc(C2[C@H]3CN(Cc4cccnc4)[C@H](c4ccccc4)C34CC2(c2cccnc2)C4)cn1 (some centres undefined),inconclusive: 99.5%
13,COC(=O)c1nnn(-c2cccc(Cl)c2)c1C(=O)OC,inconclusive: 113%
14,COc1ccccc1NC(=O)/C=C/C(=O)O,inconclusive: 94.3%
15,CC(NC(=O)c1sc2cc([N+](=O)[O-])ccc2c1Cl)C(C)(C)C (centres undefined),inactive: 98.4%
16,COc1ccc(CCNC(=O)c2ccc(CNS(=O)(=O)c3cc(C)ccc3C)cc2)cc1OC,inactive: 101%
17,COc1ccc(C(=O)N=S2CCN(C(=O)c3ccc(Cl)cc3)CC2)cc1,inconclusive: 83.9%
18,COc1ccc2[nH]c(C(=O)Nc3cccc(C)n3)cc2c1,inconclusive: 142%
19,O=C(NCCCCNC(=O)c1ccccn1)c1ccccn1,inactive: 101%
20,O=C(O)c1cn(C2CC2)c2cc(N3CCN(S(=O)(=O)c4ccc5c(c4)OCCO5)CC3)c(F)cc2c1=O,inconclusive: 99.1%
21,COc1ccc(CCNC(=O)COC(=O)CCC(=O)c2ccc(F)cc2)cc1,inconclusive: 86.7%
22,NC(=O)[C@H]1CC2(CC(c3cccc(NC(=O)CC(c4ccccc4)c4ccccc4)c3)=NO2)CN1C(=O)c1ccccc1C(=O)c1ccccc1 (some centres undefined),inconclusive: 128%
23,CCN(CC)CCN1C(=O)C(=O)/C(=C(/O)c2ccc(C)cc2)C1c1cccnc1 (centres undefined),inconclusive: 88.5%

# Quoted from the listing:
# Entry for `CN(C)S(=O)(=O)c1ccc(C(=O)OCC(=O)NCc2ccccc2)cc1` under binding response (% of control): inconclusive: 94.1%
# Entry for `COc1ccccc1NC(=O)/C=C/C(=O)O` under binding response (% of control): inconclusive: 94.3%
# Entry for `COc1ccc(CCNC(=O)c2ccc(CNS(=O)(=O)c3cc(C)ccc3C)cc2)cc1OC` under binding response (% of control): inactive: 101%

# Next part:

row,Structure (SMILES),binding response (% of control)
1,CCN(C(=O)c1cc2c(=O)[nH]c3ccc(C)cc3c2s1)c1ccccc1C,inconclusive: 111%
2,O=C(/C=C/c1ccccc1)NC(=O)c1ccccc1O,inconclusive: 117%
3,CCOC(=O)c1ccc(NC(=O)N2CCN(c3ccccc3OC)CC2)cc1,inconclusive: 82.2%
4,CN(Cc1cn(C)nc1-c1ccccc1F)CC1CCN(Cc2ccccc2)CC1,inconclusive: 96.9%
5,CCCc1ccc(C(=O)NC(=O)c2ccccc2O)cc1,inconclusive: 652%
6,CCCNC(=O)C1CC(c2cccc(F)c2)=NO1 (centres undefined),inconclusive: 78.4%
7,O=C(CSc1nnc(-c2ccc(OC(F)F)cc2)o1)N1CCOCC1,inactive: 98.4%
8,CCOc1ccc(CCNC(=O)COC(=O)c2cc(OC)cc(OC)c2)cc1OCC,inconclusive: 124%
9,COCCCNCCC(CCC(C)C)c1ccc2c(c1)OCO2 (centres undefined),inconclusive: 117%
10,COc1ccc(-c2cc(=Nc3c(C)n(C)n(-c4ccccc4)c3=O)c3ccccc3o2)cc1,inconclusive: 114%
11,Cc1ccc(N2C(=O)CC(Nc3ccc(Cl)c(S(=O)(=O)N(C)C)c3)C2=O)c(C)c1 (centres undefined),inconclusive: 118%
12,CCCCc1nc(Cl)c(C#N)c2c1CCC2,inconclusive: -627%
13,Cc1noc(C)c1S(=O)(=O)Nc1cc(C(F)(F)F)ccc1N1CCOCC1,inconclusive: 85.9%
14,NC(=O)CC(NC(=O)Cc1cccc2ccccc12)c1ccc(N2CCN(c3ccccc3)CC2)c([N+](=O)[O-])c1 (centres undefined),inconclusive: 87.7%
15,CCCCCNC(=O)C1CC(=O)OC12CCCCC2 (centres undefined),inactive: 96.9%
16,Cc1ccc(S(=O)(=O)CCN2C=CC(C(F)(F)F)=NCC2)cc1,inconclusive: 143%
17,Cn1nc(C(F)(F)F)c(-c2ccc(Br)cc2)c1NC(=O)Nc1ccc(F)cc1F,inconclusive: 102%
18,Cc1ccc(Cn2c(SCC(=O)N3CC(=O)Nc4ccccc43)nc3ccccc3c2=O)cc1,inactive: 101%
19,CCOc1ccc(N2C(=O)CN(O)C=C3N=c4ccccc4=C32)cc1,inactive: 96.7%
20,Cc1cccc(C2C3=C(CCCC3=O)N=C3c4ccccc4C(=O)C32)c1 (centres undefined),inconclusive: 111%
21,COc1ccc(N2C(=O)C(Cc3ccccc3)NC2=S)cc1 (centres undefined),inconclusive: 74%
22,CC1CCCN(C(=O)C2CCN(CC(C)c3ccccc3)CC2)C1 (centres undefined),inactive: 97%
23,O=C(O)c1cn(C2CCCCC2)c2ccccc2c1=O,inconclusive: 114%

row,Structure (SMILES),binding response (% of control)
1,CCCCCC[N+](C)(C)CCSSCC[N+](C)(C)CCCCCC,inconclusive: 262%
2,CCS(=O)(=O)c1ccc2oc(Nc3cccc(OC)c3)nc2c1,inconclusive: 102%
3,O=C(Nc1cccnc1)Nc1ccc(Cl)cc1Cl,inconclusive: 103%
4,Cc1ccc(NC(=O)CSc2nnc(-c3ccccn3)n2N)c(Br)c1,inconclusive: 232%
5,O=C(O)CCCN1C(=O)C(=O)/C(=C(/O)c2ccccc2)C1/C=C/c1ccccc1 (centres undefined),inactive: 97.9%
6,Cc1nc(S(=O)(=O)N2CCN(C3c4ccccc4-c4ccccc43)CC2)cn1C,inconclusive: 171%
7,CC(=O)c1ccc(NC(=O)Nc2ccccc2)cc1,inactive: 106%
8,CCOC(=O)c1c(C)nn(-c2ncccc2NC(=O)NC(C)C)c1C,inconclusive: 74.7%
9,Cc1ccc(C(=O)C(C)N(C(=O)c2ccc(Cl)cc2Cl)N2C(=O)CCCC2=O)cc1 (centres undefined),inconclusive: 98.5%
10,CSc1cccc(NC(=O)/C=C/c2cccc(Cl)c2)c1,inactive: 102%
11,CCc1cccc(C)c1NC(=O)CO/N=C(\N)CC(=O)NC1CCCCC1,inactive: 102%
12,COc1ccc(NC(=O)c2cc3cccc(OC)c3oc2=Nc2ccc(C(=O)O)cc2)cc1OC,inconclusive: 89.2%
13,CCN(CC)C(=O)CC(c1cc(OC)c(OC)c(OC)c1)c1c(OC)cc(OC)c2ccc(=O)oc12 (centres undefined),inconclusive: 118%
14,CCOC(=O)NNC(=S)Nc1c(C)n(C)n(-c2ccccc2)c1=O,inconclusive: 189%
15,CC(=O)c1ccc(NC(=S)Nc2ccc(N3CCOCC3)cc2)cc1,inconclusive: 108%
16,O=C(NCc1ccccc1)C(=O)NCC(c1ccco1)N1CCN(c2ccccc2F)CC1 (centres undefined),inconclusive: 102%
17,Cc1onc(-c2ccccc2Cl)c1C(=O)OCC(=O)Nc1cccc(S(=O)(=O)N(C)C)c1,inconclusive: 116%
18,O=C(Nc1ccccc1)N1CCCN(c2ccc(C(F)(F)F)cn2)CC1,inconclusive: 27%
19,Cc1csc(NC(=O)c2ccco2)c1C(=O)c1ccccc1,inconclusive: 98.8%
20,Cc1ccccc1C(=O)Nc1nnc(CC(=O)N/N=C/c2ccco2)s1,inconclusive: 98.3%
21,O=S(=O)(CCc1ccccc1)/N=C/c1cccs1,inactive: 118%
22,O=C(NCc1ccccc1)C12CC3CC(CC(C3)C1)C2,inactive: 100%
23,c1ccc(C2[C@H]3CN(CC4CCCCC4)[C@H](c4ccccc4)C34CC2(c2ccccc2)C4)cc1 (some centres undefined),inconclusive: 85.2%

row,Structure (SMILES),binding response (% of control)
1,COc1cc(OC)c2c(c1)C(=O)c1cc(OC)cc(OC)c1C2=O,inactive: 99.6%
2,CCn1nnnc1SCC(=O)NC1Cc2ccccc2C1,inconclusive: 103%
3,CCN(CC)c1ccc(CNc2nc3ccccc3n2CC)cc1,inconclusive: 99%
4,COc1cccc(/C=C2\SC(=S)N(C(C(=O)O)c3ccccc3)C2=O)c1OC (centres undefined),inconclusive: 82.5%
5,CNc1nc2cc([N+](=O)[O-])c([N+](=O)[O-])cc2nc1NC,inactive: 101%
6,Cc1ccc(/C=C(\NC(=O)c2ccccc2)C(=O)NCC2CCCO2)o1 (centres undefined),inconclusive: 98%
7,O=C(Nc1ccc(Cl)cc1)N1CCOC12CCC1(CC2)OCCO1,inconclusive: 111%
8,CCOC(=O)c1ccc(CSC(=N)N)o1,inconclusive: 129%
9,COc1ccc(/C(C)=N/NC(=S)Nc2cc(C)ccc2C)cc1,inconclusive: 93.9%
10,Cn1ncc(S(=O)(=O)Cc2ccccc2)c(Cl)c1=O,inconclusive: 278%
11,CCC(C)n1ncn(-c2ccc(N3CCN(c4ccc(OC)cc4)CC3)cc2)c1=O (centres undefined),inactive: 98.3%
12,COC(=O)c1cc(=O)n2c(sc3ccccc32)c1C#N,inconclusive: 102%
13,CC(C)CCOc1ccc(/C=C2\CCn3c2nc2cc(C(=O)O)ccc2c3=O)cc1,inconclusive: 120%
14,NC(=O)c1cc2ccncc2c2ccccc12,inconclusive: 144%
15,Cc1nn(Cc2cccc(C(=O)O)c2)c(C)c1[N+](=O)[O-],inconclusive: 105%
16,CC1(NC(=S)Nc2ccc(NC(=S)NC3(C)CCS(=O)(=O)C3)cc2)CCS(=O)(=O)C1 (centres undefined),inconclusive: 78.1%
17,Cn1c(Cl)cnc1C(O)(c1ccccc1)c1ccccc1,inconclusive: -148%
18,CCCCNC(=O)c1onc(CSc2ccc(C(C)C)cc2)c1C(=O)O,inactive: 101%
19,CCOC(=O)c1c(C)nc2sc(C(N)=O)c(N)c2c1-c1ccccc1,inactive: 100%
20,CC(C)(C)CC(=O)Nc1cc(S(=O)(=O)N2CCOCC2)ccc1N1CCCC1,inconclusive: 29.6%
